Article PMC8828718
No constants are given. Whether binding was seen depends on the method and setting. In cells and extracts the contact can be indirect. Some results given as binding are weak or reduced against the parent protein; the word gives no strength. Tags and fused reporters may be left off the sequences shown.

The chains behind the UniProt entries cited, without tags or fusion partners.
UniProt P53350: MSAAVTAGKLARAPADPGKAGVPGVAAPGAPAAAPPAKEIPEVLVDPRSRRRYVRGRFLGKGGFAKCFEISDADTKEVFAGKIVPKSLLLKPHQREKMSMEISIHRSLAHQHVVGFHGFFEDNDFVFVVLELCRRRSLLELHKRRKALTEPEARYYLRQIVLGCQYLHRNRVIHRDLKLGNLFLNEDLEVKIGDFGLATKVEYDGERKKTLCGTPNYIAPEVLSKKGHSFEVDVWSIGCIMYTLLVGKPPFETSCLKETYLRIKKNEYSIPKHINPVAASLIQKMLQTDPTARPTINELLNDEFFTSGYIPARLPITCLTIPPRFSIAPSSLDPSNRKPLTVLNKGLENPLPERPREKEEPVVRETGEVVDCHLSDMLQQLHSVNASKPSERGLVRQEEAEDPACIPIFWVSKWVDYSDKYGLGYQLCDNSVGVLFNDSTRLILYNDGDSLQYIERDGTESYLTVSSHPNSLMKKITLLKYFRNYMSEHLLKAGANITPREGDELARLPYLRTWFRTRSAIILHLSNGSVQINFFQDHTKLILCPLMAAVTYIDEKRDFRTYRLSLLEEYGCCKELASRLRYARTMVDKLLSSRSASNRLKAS

Molecular target: Myc-Plk1 (pRcCMV-Myc-Plk1) (UniProt P53350)
Test: co-IP; immunoprecipitation from lysates of HEK293T cells transfected with Vrk3 and Plk1, as for the S2 cells

binding: binds
B1: Vrk3 (3xFLAG-EGFP fusion from pDEST-CMV-3xFLAG-EGFP) (enzyme, UniProt Q8IV63 1-474)
chain: MISFCPDCGKSIQAAFKFCPYCGNSLPVEEHVGSQTFVNPHVSSFQGSKRGLNSSFETSPKKVKWSSTVTSPRLSLFSDGDSSESEDTLSSSERSKGSGSRPPTPKSSPQKTRKSPQVTRGSPQKTSCSPQKTRQSPQTLKRSRVTTSLEALPTGTVLTDKSGRQWKLKSFQTRDNQGILYEAAPTSTLTCDSGPQKQKFSLKLDAKDGRLFNEQNFFQRAAKPLQVNKWKKLYSTPLLAIPTCMGFGVHQDKYRFLVLPSLGRSLQSALDVSPKHVLSERSVLQVACRLLDALEFLHENEYVHGNVTAENIFVDPEDQSQVTLAGYGFAFRYCPSGKHVAYVEGSRSPHEGDLEFISMDLHKGCGPSRRSDLQSLGYCMLKWLYGFLPWTNCLPNTEDIMKQKQKFVDKPGPFVGPCGHWIRPSETLQKYLKVVMALTYEEKPPYAMLRNNLEALLQDLRVSPYDPIGLPMVP
